Source: PubChem BioAssay AID504467 (National Center for Advancing Translational Sciences (NCATS), 2011)
Hit rate of the full screen: of about 330,000 compounds, about 7,700 (2.3%) were called active. Inconclusive means that the source gave no clear call. Such entries were picked first, then a sample of the others. The call rests on the fitted dose curve; in most records, active means well fitted inhibition curve with a large enough effect; inconclusive means small, poorly fitted or top-dose-only effect, or effect the other way; inactive means flat fitted curve, though single readings scatter. A potency beside an inconclusive call is a rough fit, not a confirmed value.

Experiment: qHTS screen for small molecules that inhibit ELG1-dependent DNA repair in human embryonic kidney (HEK293T) cells expressing luciferase-tagged ELG1; further: nearly all actives have a fitted effect of over 55% in size
Conditions: HEK293T ELG1-luciferase reporter, luminescence, 16 h, DNA damage induced by 5-fluorouridine; series mostly up to 46.1 µM
Outline: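 5-Fluorouridine DNA damage + compound/DMSO, 2,000 cells/well, 16 h, 37 °C/5% CO2. ONE-Glo, 30 min RT, luminescence. Readout = decrease in reporter signal.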
Potency means the concentration at half of the fitted maximal effect.

Compound | Potency
O=C(CC1CCCC1)N1CCCC(Nc2cccc(F)c2)C1 (centres undefined) | inactive
CCC(C)(C)NC(=O)C(c1cccn1C)N(Cc1ccc(OC)cc1)C(=O)Cn1nnc2ccccc21 (centres undefined) | inconclusive: 8.2 µM [inhibitor, partial curve]
Nn1c(Nc2ccccc2)nc2sc3c(c2c1=O)CCC3 | inconclusive: 5.8 µM [activator, full curve, poor fit]
Cc1cc(C)n2c(SCCC(C)C)nnc2n1 | inconclusive: 23.1 µM [activator, single point]
Cc1cccc(CSc2nnc(CCCCCNC(=O)OC(C)(C)C)o2)c1 | inconclusive: 13 µM [inhibitor, partial curve, poor fit]
CC/C=C\C/C=C\C/C=C\CCCCCCCC(=O)O | inactive
C#CC1(NC(=O)NC(=O)c2c(F)cccc2F)CCCCC1 | inactive
CCCN1C(=O)C(=O)c2cc(C)ccc21 | inconclusive: 29.1 µM [activator, single point]
CCOc1ccc(Cc2onc3c2C(=O)CC(C)(C)C3)cc1OCC | inconclusive: 23.1 µM [inhibitor, single point]
COc1ccc(OCCc2nnc(N)s2)cc1 | inconclusive: 25.9 µM [activator, partial curve, poor fit]
COc1ccccc1CNc1ccccc1F | inactive
COc1ccc(NC(=O)N2CCCC2C(=O)NCCc2ccccc2)cc1 (centres undefined) | inactive
Cc1cc(C)cc(-n2ccnc2SCC(=O)O)c1 | inconclusive: 18.3 µM [activator, single point]
CCCCc1nnc(NC(=O)C2CCCO2)s1 (centres undefined) | inconclusive: 29.1 µM [activator, single point]
Cc1cc(C(=O)CSc2nnc(-c3ccc(F)cc3)o2)c(C)n1CC1CCCO1 (centres undefined) | inconclusive: 3.66 µM [activator, single point]
N#Cc1cccc2c1-c1ccccc1/C2=N/NC(N)=S | inactive
COc1cccc(C(=O)Nc2cccc(-c3ccccc3)c2)c1 | inactive
CCN(CC)CCNc1nc2c(c(=O)n(C)c(=O)n2C)n1C/C=C(/C)Cl | inconclusive: 3.66 µM [inhibitor, single point]
CCS(=O)(=O)N(CC(=O)Nc1cccc2ccccc12)c1ccc(OC)cc1 | inconclusive: 31.6 µM [activator, single point]
COc1ccc(OC)c(CNS(=O)(=O)c2cn(C)cn2)c1 | inactive
Clc1ccccc1CN1CCSCC1 | inconclusive: 1.26 µM [activator, single point]
O=C(CNC(=O)c1cccs1)NCC(=O)OCC(=O)c1ccc([N+](=O)[O-])cc1 | inactive
CCc1cccc(NC(=O)COc2ccccc2)c1 | inconclusive: 20.6 µM [activator, single point]
CCc1ccc(NCc2nc3ccccc3c(=O)[nH]2)cc1 | inconclusive: 1.16 µM [activator, full curve]
COc1ccccc1NC(=O)N1CCN(C)CC1 | inconclusive: 23.1 µM [activator, partial curve, poor fit]

Single values from above.
Value of Clc1ccccc1CN1CCSCC1 under Potency: inconclusive: 1.26 µM [activator, single point]
Value of COc1ccccc1CNc1ccccc1F under Potency: inactive

The results go on:

Compound | Potency
CCN(CC)C(=O)c1ccc(-c2nnc(OC)c3ccccc23)cc1 | inconclusive: 29.1 µM [inhibitor, single point]
CCOC(=O)c1c(NC(=O)COC(=O)CNC(=O)c2ccco2)sc(C)c1C | inactive
O=S(=O)(c1c(Cl)sc(Cl)c1Br)N1CCCC1 | inconclusive: 14.6 µM [activator, partial curve, poor fit]
C=C[C@@]1(C)CCC(/C(C)=C/C=C/C(C)(C)O)C[C@@H]1C(=C)C (some centres undefined) | inactive
O=C(O[C@@H]1[C@H](Cc2ccccc2)NS(=O)(=O)[C@H]2C[C@@H]3C=C[C@]12O3)c1ccccc1Br | inactive
Cc1cc(OCC(=O)c2cccc(C(F)(F)F)c2)n2cnnc2n1 | inactive
O=[N+]([O-])c1cc(-c2ncccn2)c([N+](=O)[O-])s1 | inconclusive: 29.1 µM [inhibitor, single point]
CN(C(=O)CSc1nc(-c2cccs2)nc2ccccc12)C1CCS(=O)(=O)C1 (centres undefined) | inconclusive: 29.1 µM [inhibitor, single point]
Cc1c(C(=O)N(C)C2CC(C)(C)NC(C)(C)C2)oc2c(F)cccc12 | inactive
O=C(c1ccccc1)c1cc(-c2ccccc2)on1 | inconclusive: 4.61 µM [activator, partial curve]
N#CC1=C2N=C(N)c3ccccc3N2C2=C(C(=O)CCC2)C1c1ccccc1F (centres undefined) | inactive
CCOc1cc(NC(=O)c2ccco2)c(OCC)cc1NC(=O)CCc1ccccc1OC | active: 20.6 µM
COc1ccc(-c2cc(COc3ccccc3)on2)cc1 | inconclusive: 16.4 µM [activator, partial curve]
COCc1cc(C)nc(Sc2nc3c(c(=O)n(C)c(=O)n3C)n2C)c1C#N | inactive
Cn1c(SCc2nnc(-c3ccccc3Br)o2)nc2sc3c(c2c1=O)CCC3 | inconclusive: 25.1 µM [inhibitor, single point]
COc1ccccc1OCCNC(=O)c1ccc(Br)cc1 | inconclusive: 16.4 µM [activator, partial curve]
N#C/C(=C\c1ccc(OC(=O)c2ccc(Cl)s2)cc1)c1nc2ccccc2[nH]1 | inconclusive: 10.3 µM [activator, partial curve]
CC(=O)NCCOc1nc(N2CCCCC2)nc(N2CCCCC2)n1 | inactive
CCc1ccc(C2=NN(C(=O)OC)C(O)(C(F)(F)F)C2)cc1 (centres undefined) | inconclusive: 3.66 µM [activator, full curve]
Cc1ccc(NC(=O)CSc2n[nH]c(-c3ccccn3)n2)cc1 | inconclusive: 20.6 µM [inhibitor, single point]
CN(CC(=O)NC(=O)NCc1ccccc1)CC(=O)Nc1ccc(Cl)c(Cl)c1 | active: 18.3 µM
COc1ccc(N2CCN(c3nc(Nc4ccc(F)cc4)nc(OC)n3)CC2)cc1 | inactive
COc1cc(/C=C2/SC(=S)N(Cc3ccccc3)C2=O)ccc1OS(C)(=O)=O | inactive
O=C(O)c1ccc(/C=N/N2CCN(c3ccccc3)CC2)cc1 | inconclusive: 4.47 µM [activator, full curve, poor fit]

Molecules listed so far with a CF3 group, in the order listed:
Compound | Potency
Cc1cc(OCC(=O)c2cccc(C(F)(F)F)c2)n2cnnc2n1 | inactive
CCc1ccc(C2=NN(C(=O)OC)C(O)(C(F)(F)F)C2)cc1 (centres undefined) | inconclusive: 3.66 µM [activator, full curve]
